# Laboratory results as given in PubChem BioAssay AID2110 (National Center for Advancing Translational Sciences (NCATS), 2009).
# This list was built around the results that the source calls inconclusive (neither active nor inactive); the mix of calls is not that of the screen. Potencies beside an inconclusive call are fits to weak or partial responses and may not hold up. Active and inactive are the calls of the source. Calls come from the whole dose curve; as a rule, active = well fitted curve in either direction with a large enough effect; inconclusive = small, poorly fitted or top-dose-only effect; inactive = no such curve, though single readings can be large or run the other way.
# Molecular target: Lysosomal alpha-glucosidase (Homo sapiens) (UniProt P10253)
# Assay: Confirmation of Inhibitors and Activators of Purified Human alpha-Glucosidase Using an Alternate Red Fluorescent Susbtrate
# Details: purified enzyme, red fluorogenic substrate; activity change, negative = inhibition: at the top concentration
# Source text: NIH Chemical Genomics Center [NCGC]
# NIH Molecular Libraries Probe Production centers Network [MLPCN]
# Assay Submitter (PI): Wei Zheng
# Alpha-glucosidase is responsible for hydrolysis of terminal, non-reducing 1,4-linked alpha-D-glucose residues with release of alpha-D-glucose. It is a lysosomal hydrolase that is required for the degradation of a small percentage (1-3%) of cellular glycogen in human. Deficiency of this enzyme results in glycogen-storage disease type II (GSDII), also referred to as Pompe disease, an autosomal recessive disorder. Structurally normal glycogen is accumulated in lysosomes and cytoplasm in affected patients, primarily in muscle tissues. Excessive glycogen storage within lysosomes may interrupt normal functioning of other organelles and leads to cellular injury. In turn, this leads to enlargement and dysfunction of the entire organ involved (eg, cardiomyopathy and muscle weakness).
# It has reported that the improper folding and trafficking of alpha-glucosidase resultinged from the genetic mutations may account for a significant number of Pomrope patients. […] We optimized this alpha-glucosidase assay in 1536-well plate format for identifying the novel small molecule inhibitors with the structures other than the sugar analogs in order to develop the new pharmacological chaperones. This assay attempted to confirm hits from the primary screening using an alternate fluor than the primary screen used.
# NCGC Assay Protocol Summary:
# This is a fluorogenic enzyme assay with resorufin-alpha-D-pyranoside as the substrate and recombinant human alpha-glucosidase as the enzyme preparation. Upon the hydrolysis of this fluorogenic substrate, the resulting product, resorufin, can be excited at 573 nm and emits at 610 nm which can be detected by a standard fluorescence plate reader. Data were normalized to the controls for basal activity (without enzyme) and 100% activity (with enzyme). The AC50 values were determined from concentration-response data modeled with the standard Hill equation.
# Assay buffer: 50 mM citric acid (titrated with potassium phosphate to pH 5.0), 0.005% Tween-20, pH 5.0. (pH 5.0 is an optimal condition for this enzyme assay)
# 1536-well assay protocol for the human alpha-glucosidase:
# (1) Add 2 ul/well of enzyme (4 nM final)
# (2) Add 23 nL compounds in DMSO solution. The final titration was 0.7 nM to 77 uM.
# (3) Add 1 ul of substrate (400 uM final)
# (4) Incubate at room temperature for 20 min.
# (5) Add 2 ul stop solution (1M NaOH and 1M Glycine mixture, pH 10)
# (6) Detect the assay plate in a ViewLux plate reader (PerkinElmer) with Ex=365 nm and Em=440nm.
# Keywords: Alpha-glucosidase, Pompe Disease, pharmacological chaperone, chaperone therapy, high throughput screening, alpha-glucosidase inhibitor, MLSMR, MLSCN, NIH Roadmap, qHTS and NCGC
Compound,"activity change, negative = inhibition",Potency
CC(=O)c1ccc(N2CCN(C(=O)c3ccc4c(c3)CCC(=O)N4)CC2)cc1,inactive: -4.65%,
O=C1Cc2cc(S(=O)(=O)N3CCN(c4ccc(C(F)(F)F)cc4)CC3)ccc2N1,,"inconclusive: 237 µM [inhibitor, partial curve]"
COC(=O)c1ccc(N2CCN(S(=O)(=O)c3ccc4c(c3)CC(=O)N4)CC2)cc1,,"inconclusive: 32.6 µM [inhibitor, partial curve]"
O=C1Cc2cc(S(=O)(=O)N3CCN(c4ccc(F)cc4)CC3)ccc2N1,,"inconclusive: 188 µM [inhibitor, partial curve]"
CC(=O)c1ccc(N2CCN(S(=O)(=O)c3ccc4c(c3)oc(=O)n4C)CC2)cc1,inactive: -15.5%,
CC(=O)N1CCN(c2ccc(NS(=O)(=O)c3ccc4c(c3)CC(=O)N4)cc2)CC1,,"inconclusive: 94.3 µM [inhibitor, partial curve]"
COc1cccc(CCn2c(N)cc(=O)[nH]c2=S)c1OC,,"inconclusive: 39.8 µM [activator, full curve]"
CC(=O)N1CCN(S(=O)(=O)c2ccc3c(c2)CC(=O)N3)CC1,,active: 14.9 µM [inhibitor]
COc1ccc(CCn2c(=S)[nH]c(=O)c3nccnc32)cc1OC,inactive: -4.4%,
Nc1c(S(=O)(=O)O)cc(Nc2ccc(Nc3nc(Cl)nc(Nc4ccc(S(=O)(=O)O)cc4)n3)c(S(=O)(=O)O)c2)c2c1C(=O)c1ccccc1C2=O,,"inconclusive: 50.1 µM [activator, single point]"
O=C1Cc2cc(S(=O)(=O)N3CCN(c4ccc(Br)cc4)CC3)ccc2N1,,"inconclusive: 188 µM [inhibitor, partial curve]"
O=S(=O)(c1ccc(Cl)cc1)N1CCN(c2nc(Nc3cc(Cl)ccc3O)nc3ccccc23)CC1,inactive: 0.0734% [at 32.7 µM],
CCCN1CNc2c(c(=O)[nH]c(=S)n2CCc2ccc(C)c(C)c2)C1,,active: 1.12 µM
CC(=O)c1ccc(N2CCN(C(=O)c3ccc4c(c3)CC(=O)N4)CC2)cc1,inactive: -10.5%,
O=C(Nc1cccc(C(=O)Nc2ccc(S(=O)(=O)O)c3cc(S(=O)(=O)O)cc(S(=O)(=O)O)c23)c1)Nc1cccc(C(=O)Nc2ccc(S(=O)(=O)O)c3cc(S(=O)(=O)O)cc(S(=O)(=O)O)c23)c1,,"inconclusive: 44.7 µM [activator, partial curve, poor fit]"
O=C1Cc2cc(S(=O)(=O)N3CCN(c4ccc(Cl)cc4)CC3)ccc2N1,,"inconclusive: 94.3 µM [inhibitor, partial curve]"
CCCN1CNc2c(c(=O)[nH]c(=S)n2CCc2ccccn2)C1,,"inconclusive: 31.6 µM [activator, full curve]"

# Arranged by formula weight (largest number first): part of the list above.
Compound,"activity change, negative = inhibition",Potency
O=C(Nc1cccc(C(=O)Nc2ccc(S(=O)(=O)O)c3cc(S(=O)(=O)O)cc(S(=O)(=O)O)c23)c1)Nc1cccc(C(=O)Nc2ccc(S(=O)(=O)O)c3cc(S(=O)(=O)O)cc(S(=O)(=O)O)c23)c1,,"inconclusive: 44.7 µM [activator, partial curve, poor fit]"
O=C1Cc2cc(S(=O)(=O)N3CCN(c4ccc(Br)cc4)CC3)ccc2N1,,"inconclusive: 188 µM [inhibitor, partial curve]"
CCCN1CNc2c(c(=O)[nH]c(=S)n2CCc2ccccn2)C1,,"inconclusive: 31.6 µM [activator, full curve]"
